# Values joined by “and” are separate entries in the source; they are usually repeats but may differ in a detail not shown here. Identical values can stand only once. Counter-ions that a name gives are not always drawn. The list shows a part of the results. Most values lie at the level of the controls, where differences are scatter.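 Melting temperature was read by differential scanning fluorimetry in a single-replicate pilot screen of a library of approved drugs and clinical or known-target compounds. Compounds raising the melting point by at least 2 °C were the top stabilizing hits, and negative shifts mean destabilization.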
# System: SARS-CoV-2 main protease (Mpro, nsp5)
# Experiment: thermal shift ΔTm of Mpro relative to plate average Tm; higher = stronger thermal stabilization of Mpro (binding)
# Conditions: 10 µM; protein concentration 1 µM
row,Compound,thermal shift ΔTm of Mpro
1,CC1=NN(c2ccccc2)C(=O)C1 [Edaravone],0.269 °C
2,O=C(O)CCNC(=O)c1ccccc1 [Betamipron],0.0173 °C
3,O=C(N[C@H](CO)[C@H](O)c1ccc([N+](=O)[O-])cc1)C(Cl)Cl [Chloramphenicol],-0.00128 °C
4,CCC[C@@H]1C[C@@H](C(=O)N[C@@H]([C@H]2O[C@H](SC)[C@H](O)[C@@H](O)[C@H]2O)[C@H](C)Cl)N(C)C1 [Clindamycin HCl],-0.00193 °C
5,CCC[C@@H]1C[C@@H](C(=O)N[C@@H]([C@H]2O[C@H](SC)[C@H](O)[C@@H](O)[C@H]2O)[C@H](C)Cl)N(C)C1 [Clindamycin],-0.19 °C
6,CO[C@H]1/C=C\C=C(/C)C(=O)NC2=CC(=O)C(NCCN(C)C)=C(C[C@@H](C)C[C@H](OC)[C@H](O)[C@@H](C)/C=C(\C)[C@@H]1OC(N)=O)C2=O [17-DMAG (Alvespimycin) HCl],-0.11 °C
7,C=C1/C(=C\C=C2/CCC[C@]3(C)[C@@H]([C@H](C)CCCC(C)C)CC[C@@H]23)C[C@@H](O)C[C@@H]1O [Alfacalcidol],0.263 °C
8,COC(=O)c1ccccc1C(=O)c1ccc(OCCN2CCCCC2)cc1 [Pitofenone hydrochloride],0.0456 °C
9,Clc1ccc([C@]23CNC[C@H]2C3)cc1Cl [Amitifadine hydrochloride],0.29 °C
10,CN1CCC[C@@H]1Cc1c[nH]c2ccc(CCS(=O)(=O)c3ccccc3)cc12 [Eletriptan HBr],-0.1 °C
11,CCCCCCCCCCCCCC(=O)[O-].CCCCCCCCCCCCCC(=O)[O-].N[C@@H]1CCCC[C@H]1N.[Pt+2] [Miriplatin],-0.0207 °C
12,Nc1ccccc1S(N)(=O)=O [2-Aminobenzenesulfonamide],0.143 °C
13,COc1ccccc1Oc1c(NS(=O)(=O)c2ccc(C(C)(C)C)cc2)nc(-c2ncccn2)nc1OCCO [Bosentan],-0.162 °C
14,COc1ccccc1Oc1c(NS(=O)(=O)c2ccc(C(C)(C)C)cc2)nc(-c2ncccn2)nc1OCCO [Bosentan Hydrate],0.0137 °C
15,CC(=O)c1ccc2c(c1)c1cc(C(C)=O)ccc1n2CCNC(C)C [CBL0137 hydrochloride],-0.0812 °C
16,C[S+]([O-])c1ccc(-c2nc(-c3ccc(F)cc3)c(-c3ccncc3)[nH]2)cc1 (centres undefined),0.0841 °C
17,COc1cc2c(Oc3ccc(NC(=O)C4(C(=O)Nc5ccc(F)cc5)CC4)cc3F)ccnc2cc1OCCCN1CCOCC1,0.069 °C
18,COCCNc1cc(NC(=O)N2CCCc3cc(CN4CCN(C)CC4=O)c(C=O)nc32)ncc1C#N [Roblitinib],-0.0237 °C
19,OCc1cccnc1 [Roniacol],-0.0653 °C
20,COc1cc(N2CCC(N(C)C)CC2)ccc1Nc1ncc(Cl)c(Nc2ccccc2P(C)(C)=O)n1,-0.331 °C
21,O=C(O)c1cn(C2CC2)c2cc(N3CCNCC3)c(F)cc2c1=O [Ciprofloxacin hydrochloride],-0.00814 °C
22,CCOc1nc2cccc(C(=O)OCc3oc(=O)oc3C)c2n1Cc1ccc(-c2ccccc2-c2noc(=O)[nH]2)cc1 [Azilsartan Medoxomil],-0.0283 °C
23,CN1c2cc(O)c(N=NC(N)=O)cc2CC1S(=O)(=O)O (centres undefined) [Carbazochrome sodium sulfonate (AC-17)],-0.0439 °C
24,Cc1cc(-c2nc3sc4c(c3c(=O)[nH]2)CCN(C)C4)cc(C)c1O,-0.0107 °C
25,C#CCN[C@@H]1CCc2ccccc21 [Rasagiline Mesylate],0.163 °C

row,Compound,thermal shift ΔTm of Mpro
1,C#CCN[C@@H]1CCc2ccccc21 [Rasagiline],0.111 °C
2,COc1cc(OC2CCN(C)CC2)ccc1Nc1ncc2c(n1)n(C1CCCC1)c(=O)n2C,-0.168 °C
3,C/C(=C\c1csc(C)n1)[C@@H]1C[C@@H]2O[C@]2(C)CCC[C@H](C)[C@H](O)[C@@H](C)C(=O)C(C)(C)[C@@H](O)CC(=O)N1 [Ixabepilone],-0.0645 °C
4,Cc1cc(C(C)(C)C)c(O)c(C(C)(C)C)c1,-0.242 °C
5,COc1ccc(NS(=O)(=O)c2sc3ccc(Cl)cc3c2C)cc1N1CCNCC1,-0.317 °C and 0.23 °C
6,CN1CCC(c2c[nH]c3ccc(O)cc23)CC1,-0.901 °C
7,Nc1n[n+]([O-])c2ccccc2[n+]1[O-] [Tirapazamine],0.0386 °C
8,O=C(Nc1nc2ccc(NC(=O)C34CC5CC(CC(C5)C3)C4)cc2s1)c1ccccc1,0.0205 °C
9,CCn1c(C(=O)N(C2CC2)C2CC2)cc2c3c(ncn3C)c(Nc3cc(C)n(C)n3)nc21,0.238 °C
10,CCCN1CCCC[C@H]1C(=O)Nc1c(C)cccc1C [Ropivacaine HCl],0.0472 °C
11,CCCN1CCCC[C@H]1C(=O)Nc1c(C)cccc1C [Ropivacaine],0.0532 °C
12,CC(C)(OCc1nn(Cc2ccccc2)c2ccccc12)C(=O)O [Bindarit],-0.0579 °C
13,CC(=O)NCCCOc1ccc(C(=O)N2CCC(N3C(=O)CCc4ccccc43)CC2)cc1,-0.00629 °C
14,Cc1cccc(-c2[nH]c(C(C)(C)C)nc2-c2ccc3c(c2)OCO3)n1,-0.148 °C
15,CC(NC(=O)c1ccccc1/N=C/c1c(O)ccc2ccccc12)c1ccccc1 (centres undefined) [Sirtinol],-0.197 °C
16,CCN(C(=O)c1c(O)c2c(Cl)cccc2n(C)c1=O)c1ccccc1 [Laquinimod],-0.0327 °C
17,CN1CC(=O)N2[C@H](c3ccc4c(c3)OCO4)c3[nH]c4ccccc4c3C[C@@H]2C1=O [Tadalafil],0.606 °C
18,CC(C)NCC(O)COc1ccc(CCOCC2CC2)cc1 (centres undefined) [Betaxolol hydrochloride (Betoptic)],-0.12 °C
19,CCc1nc(N)nc(N)c1-c1ccc(Cl)cc1 [Pyrimethamine],-0.126 °C
20,Cc1c(C(=O)NN2CCCCC2)nn(-c2ccc(Cl)cc2Cl)c1-c1ccc(Cl)cc1 [Rimonabant hydrochloride],-0.162 °C
21,Cc1c(C(=O)NN2CCCCC2)nn(-c2ccc(Cl)cc2Cl)c1-c1ccc(Cl)cc1 [Rimonabant],-0.526 °C
22,COc1cc2c(cc1OC)CC(=O)N(CCCN(C)C[C@H]1Cc3cc(OC)c(OC)cc31)CC2 [Ivabradine HCl],0.112 °C
23,COc1cc([C@@H]2c3cc4c(cc3[C@H](O)[C@H]3COC(=O)[C@@H]23)OCO4)cc(OC)c1OC [Picropodophyllin (PPP)],-0.174 °C
24,Clc1ccc(C(Cn2ccnc2)OCc2ccsc2Cl)c(Cl)c1 (centres undefined) [Tioconazole],-0.0352 °C

# Reference: the supplement of paper PMC8166895
